From US12678472B2, “Method for selective recovery of hydrophobic compounds” (priority 2019, dated 2026)

Assay: Capture of target molecule from solution by insoluble cross-linked cyclodextrin polymer (batch slurry, supernatant measured after filtration)
Conditions: for mg recovered: Example 16: 20 mg CBD and 20 mg CBG, 100 mg polymer
Protocol: A standard protocol was followed in all Examples with the variances from the standard protocol as described in each Example. The standard protocol included a plurality of steps. A mass of CBD was dissolved in ethanol to form a stock solution. A reference sample of the stock solution was diluted with ethanol to obtain a target CBD or other target molecule concentration for a reference measurement. A reaction sample was taken from the remaining stock solution. A cross-linked polysaccharide was combined with the reaction sample in a ratio relative to the CBD or other target molecule concentration present in the reaction sample (by mass) as specified in Examples. The cross-linked polymer is HDI-linked cyclodextrin prepared with a ratio of 8:1 HDI to cyclodextrin.
Water is combined with the reaction sample until the reaction sample reaches a target CBD or other target molecule concentration, and a target ethanol to water ratio. The reaction mixture including the water is filtered at a cutoff size of between 75 μm to 4,000 μm aperture size, or exposed to a magnetic field with a neodymium magnet through the wall of a flask, to retrieve the cross-linked polymer bound with CBD or other target molecule concentration. Once retrieved, the cross-linked polymer is flushed with a dissociation solvent for dissolving the target molecule. The dissociation solvent applied in the examples may be methanol, ethanol, isopropanol, a mixtures of aliphatic, aromatic and CO2 fluids, DMSO, butane.
Ten milligrams of CBD were dissolved in a 10 mL mixture of 1:1 ethanol to water to produce a reaction mixture with a CBD concentration of 1 mg/mL. A 1 mL aliquot was then taken from the reaction mixture as a reference sample (t=0). One hundred milligrams of the cross-linked polymer was then combined with the reaction mixture for a polymer to CBD ratio of about 10:1 by mass. The reaction mixture was then stirred at room temperature.
One milliliter aliquots were then taken from the reaction mixture and filtered using pipette filtration at 10 minute intervals over 80 minutes (t=10, t=20, t=30, t=40, t=50, t=60, t=70, t=80, t=90). CBD capture data was obtained from the supernatant fluid of these aliquots after filtration. The data point at t=80 was obtained using syringe filtration, which may have filtered out more of the detectable CBD independently of the insoluble polysaccharide through adsorption. The t=90 time point returns to a level consistent with the time points beginning with t=30. About 15% of the CBD, or 1.7 mg was captured with a 10:1 polymer:CBD ratio.

SMILES | mg recovered [mg] | percent of total CBD captured (Example 1: 1 mg/mL CBD in 1:1 ethanol:water, 10:1 polymer:CBD, room temperature) | mg of CBD captured (Example 1: 10 mg CBD, 1 mg/mL in 1:1 ethanol:water, 10:1 polymer:CBD) [mg] | mg of CBD captured (Example 2: 68 mg CBD, 1 mg/mL in 1:1 ethanol:water, 683 mg polymer (10:1)) [mg] | fold increase in percent CBD retention, 50:1 versus 10:1 (Example 7: 2 mg/mL CBD in 1:1 ethanol:water) [fold] | CBD capture (Example 8: ethanol only, 2 mg/mL or 4 mg/mL CBD, 10:1 polymer:CBD) | percent CBD capture (Example 10: 2 mg/mL CBD, water slowly added to 3:7 EtOH:H2O, 10:1 polymer:CBD) [%] | mg CBD captured at plateau (Example 15: 100 mg polymer, 2 mg/mL CBD in 1:1 ethanol:water, 5 to 20 mL) [mg] | percent CBD capture (Example 18: 100 mg polymer, 2 mg/mL CBD, 3:7 ethanol:water, all CBD amounts) | mg of CBD captured (Example 21: ethanol extract of hops, 10:1 polymer:CBD) [mg] | mg of CBD captured (Example 21: pure ethanol, 10:1 polymer:CBD)
CCCCCc1cc(O)c(C/C=C(\C)CCC=C(C)C)c(O)c1 [CBG, cannabigerol] | 4.8 |  |  |  |  |  |  |  |  |  | 
C=C(C)[C@@H]1CCC(C)=C[C@H]1c1c(O)cc(CCCCC)cc1O [CBD, cannabidiol] | 3.4 | About 15% | 1.7 | 11.6 | 2.3 | no significant capture | 98 | 3.2 | over 98% | 9.6 | about 9.8 mg
